Test results taken from publication PMC8647176, “Helical filament structure of the DREP3 CIDE domain reveals a unified mechanism of CIDE-domain assembly” (Acta Crystallographica. Section D, Structural Biology, 2021).
These are yes or no findings as the source states them, for the method shown.

Experiments:
[1] = molecular target: DREP3 CIDE domain D167R mutant (Drosophila melanogaster) (UniProt Q0E9B7); experiment: SEC-MALS; Superdex 200 10/300, SEC buffer, 0.4 ml min^-1, 25°C, protein at 10 mg ml^-1; wild type in 50 mM, 500 mM and 2 M NaCl; both purified
[2] = molecular target: DREP3 CIDE domain D167R mutant (Drosophila melanogaster) (UniProt Q0E9B7); experiment: SEC; Superdex 200 Increase 10/300 GL, 20 mM Tris-HCl pH 7.9, 500 mM NaCl; also series at 1, 5 and 15 mg ml^-1 protein and at four NaCl concentrations; both purified

binding [1]: no binding (tested: 10 mg ml^-1)
binding [2]: no binding
B1: DREP3 CIDE domain D167R mutant (domain or fragment, UniProt Q0E9B7 112-195)
chain: FAQLDNSKPFKIKDITRNIRKAVVATTLSELRTKVSLKFERAQPAIHLDCDGTEVRDEEYFSTLEPNAELIAVFPGEQWRDPSD
